Values of other authors, collected in patent US20110160158A1, “METHODS OF TREATMENT OF BIPOLAR DISORDER” (REPLIGEN CORPORATION, priority 2008, published 2011).
At least one structure is not confirmed: it was looked up by name or label, or the drawing left a doubt.

System: children with mitochondrial disease
Settings: 2 g/m^2 three times daily for up to two years; seizure frequency, renal tubular acidosis; cited from earlier work

Compound: CC(=O)OC[C@H]1O[C@@H](n2ccc(=O)[nH]c2=O)[C@H](OC(C)=O)[C@@H]1OC(C)=O [TAU, Triacetyluridine]
- Symptomatic improvement: Significant symptomatic improvement
